Data published in PubChem BioAssay AID248 (DTP/NCI, 2004).
The list shows only some results of the screen, not a fair sample: it is rich in T/C values a quarter to a half above the control, in often repeated tests (any T/C) and in doses without a T/C. Further doses and runs are listed elsewhere. T/C gives the treated animals as a percentage of the vehicle group. Some entries give survivors of the animals treated and no T/C: the source files T/C as zero there, which appears to mark a toxic dose or a test without result, not a measured value. Some survivor counts are full or nearly so, which does not show that the dose was tolerated: the source hardly ever lists a survival T/C far under the control, and the zero likely stands for such cases as well. Counts of survivors are from the toxicity check (mostly the fifth day) where no day follows; animals may have died later. Schedule codes are those of the source, read here as Q, the interval in days (D) or hours (H), X, the number of doses. Some entries were tested several times; the values are given in rising order. Some schedule codes hold Z or #, which are not explained here. Where survival is the endpoint, this PubChem deposit counts one and a half times the control or more as active, and values a quarter to a half above the control carry no call in these data; other NCI protocols may use other cut-offs. Counts like (3×) count equal records among those shown. Some T/C values are followed by the survivors on the day toxicity was checked, most often the fifth; without a count, all were alive then.

System: L1210 leukemia ip in BDF1 mice, survival T/C
Test: NCI In Vivo Anticancer Drug Screen. Data for tumor model L1210 Leukemia (intraperitoneal) in B6D2F1 (BDF1) mice
Details: T/C endpoint: mean survival time, higher T/C = longer survival
[1] = dose: 30.0 mg/kg/injection, schedule: Q01DX015 (ip), vehicle: saline
[2] = dose: 256.0 mg/kg/injection, schedule: Q01DX009 (ip), vehicle: saline with Tween-80
[3] = dose: 400.0 mg/kg/injection, schedule: Q01DX001 (ip), vehicle: saline
[4] = dose: 400.0 mg/kg/injection, schedule: Q01DX009 (ip), vehicle: saline
[5] = dose: 100.0 mg/kg/injection, schedule: Q01DX001 (ip), vehicle: saline
[6] = dose: 200.0 mg/kg/injection, schedule: Q01DX009 (ip), vehicle: saline with Tween-80

With `Nc1nncs1` the T/C [1] was 137 % of control, the T/C (dose: 30.0 mg/kg/injection, schedule: Q01DX Z (ip), vehicle: carboxymethylcellulose (CMC)) was 131 % of control and the T/C (dose: 32.0 mg/kg/injection, schedule: Q01DX009 (ip), vehicle: Klucel (hydroxypropylcellulose) (HPC)) was 133 % of control. The T/C (dose: 32.0 mg/kg/injection, schedule: Q01DX009 (ip), vehicle: saline with Tween-80) was 115, 118, 124, 135 % of control, the T/C (dose: 32.0 mg/kg/injection, schedule: Q01DX009 (ip), vehicle: saline, evaluated on day 30) was 108, 124 (2×), 127, 128, 129, 131, 134, 135 % of control [4 of 6 alive] and the T/C (dose: 32.0 mg/kg/injection, schedule: Q01DX009 (ip), vehicle: saline, evaluated on day 60) was 128 and 138 % of control. For the same molecule, the T/C (dose: 40.0 mg/kg/injection, schedule: Q01DX015 (ip), vehicle: saline) was 142 % of control, the T/C (dose: 40.0 mg/kg/injection, schedule: Q01DX Z (ip), vehicle: carboxymethylcellulose (CMC)) was 125 % of control and the T/C (dose: 62.0 mg/kg/injection, schedule: Q04DX003 (ip), vehicle: saline) was 140 % of control. For the same molecule, the T/C (dose: 64.0 mg/kg/injection, schedule: Q01DX009 (ip), vehicle: saline with Tween-80) was 104 [5 of 6 alive], 126, 136, 143 % of control [5 of 6 alive], the T/C (dose: 64.0 mg/kg/injection, schedule: Q01DX009 (ip), vehicle: saline, evaluated on day 30) was 110, 124, 126, 129, 131, 133, 143, 148, 150 % of control and the T/C (dose: 64.0 mg/kg/injection, schedule: Q01DX009 (ip), vehicle: saline, evaluated on day 60) was 131 and 138 % of control. For the same molecule, the survivor count (dose: 100.0 mg/kg/injection, schedule: Q01DX009 (ip), vehicle: saline) was 6 of 6, the T/C (dose: 123.0 mg/kg/injection, schedule: Q04DX003 (ip), vehicle: saline) was 138 % of control and the T/C (dose: 125.0 mg/kg/injection, schedule: Q04DX003 (ip), vehicle: saline) was 125 % of control (2×). The T/C (dose: 128.0 mg/kg/injection, schedule: Q01DX009 (ip), vehicle: saline with Tween-80) was 94 (2×), 113 [5 of 6 alive], 133 % of control [5 of 6 alive], the T/C (dose: 128.0 mg/kg/injection, schedule: Q01DX009 (ip), vehicle: saline, evaluated on day 30) was 90, 92 [5 of 6 alive], 101, 102, 108, 119, 145, 150, 155 % of control and the T/C (dose: 128.0 mg/kg/injection, schedule: Q01DX009 (ip), vehicle: saline, evaluated on day 60) was 101 and 131 % of control. The survivor count (dose: 200.0 mg/kg/injection, schedule: Q01DX009 (ip), vehicle: saline) was 5 of 6, the T/C (dose: 250.0 mg/kg/injection, schedule: Q04DX003 (ip), vehicle: saline) was 134 and 140 % of control and the survivor count (dose: 256.0 mg/kg/injection, schedule: Q01DX009 (ip), vehicle: Klucel (hydroxypropylcellulose) (HPC)) was 6 of 6. The T/C [2] was 88 % of control [5 of 6 alive], the survivor count [2] was 3 of 6 and 5 of 6 and the T/C (dose: 256.0 mg/kg/injection, schedule: Q01DX009 (ip), vehicle: saline, evaluated on day 30) was 90, 98, 104 [5 of 6 alive], 112 % of control. For the same molecule, the T/C (dose: 256.0 mg/kg/injection, schedule: Q01DX009 (ip), vehicle: saline, evaluated on day 60) was 95 % of control, the survivor count (dose: 256.0 mg/kg/injection, schedule: Q01DX009 (ip), vehicle: saline) was 4 of 6, 5 of 6, 10 of 10 and the T/C (dose: 256.0 mg/kg/injection, schedule: Q04DX003 (ip), vehicle: saline) was 129 % of control. The T/C [3] was 126 % of control, the survivor count [4] was 2 of 6 and the T/C (dose: 500.0 mg/kg/injection, schedule: Q04DX003 (ip), vehicle: saline) was 148 % of control. For the same molecule, the T/C (dose: 512.0 mg/kg/injection, schedule: Q04DX003 (ip), vehicle: saline) was 135 % of control, the T/C (dose: 900.0 mg/kg/injection, schedule: Q01DX001 (ip), vehicle: saline) was 129 % of control and the survivor count (dose: 1000.0 mg/kg/injection, schedule: Q04DX003 (ip), vehicle: saline) was 0 of 6. The T/C (dose: 1350.0 mg/kg/injection, schedule: Q01DX001 (ip), vehicle: saline) was 127 % of control.

In the case of `O=C1CC2CC(=O)CC2C1` (stereo unspecified), the survivor count [4] is reported as 0 of 6.

With `CC(=O)NC(C)Cc1ccc2c(c1)OCO2` (stereo unspecified) the survivor count (dose: 400.0 mg/kg/injection, schedule: Q01DX009 (ip), vehicle: Klucel (hydroxypropylcellulose) (HPC)) was 0 of 6.

With `O=C(Nc1ccc(C2=NCCN2)cc1)c1ccc(C(=O)Nc2ccc(C3=NCCN3)cc2)o1` the T/C (dose: 60.0 mg/kg/injection, schedule: Q01DX Z (ip), vehicle: carboxymethylcellulose (CMC)) was 148 % of control.

For `Cc1ccc(SSc2ccc(C)cc2)cc1`, the survivor count (dose: 150.0 mg/kg/injection, schedule: Q01DX009 (ip), vehicle: saline) was 3 of 6 and the survivor count (dose: 300.0 mg/kg/injection, schedule: Q01DX009 (ip), vehicle: saline) was 3 of 6.

In the case of `C#CCOc1ccccc1O`, the survivor count (dose: 200.0 mg/kg/injection, schedule: Q01DX009 (ip), vehicle: acetone) is reported as 5 of 6.

With `CCC1OC(=O)CC(O)C(C)C(OC2OC(C)CC(N(C)C)C2O)C(CC=O)CC(C)C(=O)/C=C/C2(C)OC2C1C` (stereo unspecified) the survivor count (dose: 300.0 mg/kg/injection, schedule: Q01DX009 (ip), vehicle: saline with Tween-80) was 0 of 6.

With `CC1CN1P(=S)(N1CC1C)N1CC1C` (stereo unspecified) the T/C (dose: 15.0 mg/kg/injection, schedule: Q01DX015 (ip), vehicle: saline) was 131 % of control, the T/C (dose: 24.0 mg/kg/injection, schedule: Q01DX015 (ip), vehicle: saline) was 130 % of control and the T/C [1] was 130 and 134 % of control. For the same molecule, the T/C (dose: 48.0 mg/kg/injection, schedule: Q01DX001 (ip), vehicle: saline) was 127 % of control, the T/C (dose: 72.0 mg/kg/injection, schedule: Q01DX001 (ip), vehicle: saline) was 125 % of control and the T/C (dose: 96.0 mg/kg/injection, schedule: Q01DX001 (ip), vehicle: saline) was 132 % of control. The T/C [5] was 144 % of control [5 of 6 alive], the survivor count (dose: 120.0 mg/kg/injection, schedule: Q01DX015 (ip), vehicle: saline) was 5 of 6 and the survivor count (dose: 144.0 mg/kg/injection, schedule: Q01DX Z (ip), vehicle: saline) was 6 of 6. The survivor count (dose: 324.0 mg/kg/injection, schedule: Q01DX001 (ip), vehicle: saline) was 6 of 6 and the survivor count [3] was 3 of 6.

In the case of `CC(=O)CC(C)=O.CCCCC(C[C-]=O)N(CC)CC.[Pd+2]` (stereo unspecified), the survivor count (dose: 37.5 mg/kg/injection, schedule: Q04DX003 (ip), vehicle: distilled water + Tween-80) is reported as 0 of 6, the survivor count (dose: 75.0 mg/kg/injection, schedule: Q04DX003 (ip), vehicle: distilled water + Tween-80) is reported as 1 of 6 and the survivor count (dose: 150.0 mg/kg/injection, schedule: Q04DX003 (ip), vehicle: distilled water + Tween-80) is reported as 1 of 6.

With `O=C1C2CCN(CC2)C1CN1CCC(O)(c2ccc(Cl)cc2)CC1` (stereo unspecified) the survivor count (dose: 400.0 mg/kg/injection, schedule: Q04DX003 (ip), vehicle: Klucel (hydroxypropylcellulose) (HPC)) was 0 of 6.

With `O=C(NC/C(Br)=C/Br)Nc1c2ccccc2nc2ccccc12` the survivor count (dose: 150.0 mg/kg/injection, schedule: Q01DX009 (ip), vehicle: Klucel (hydroxypropylcellulose) (HPC)) was 6 of 6 and the survivor count (dose: 300.0 mg/kg/injection, schedule: Q01DX009 (ip), vehicle: Klucel (hydroxypropylcellulose) (HPC)) was 6 of 6.

`O=C1CCCCC1c1sc([N+](=O)[O-])cc1[N+](=O)[O-]` (stereo unspecified) was tested, and the survivor count (dose: 400.0 mg/kg/injection, schedule: Q04DX002 (ip), vehicle: saline with Tween-80) was 0 of 3.

With `c1ccc(OCCC[P+](c2ccccc2)(c2ccccc2)c2ccccc2)cc1` the survivor count [5] was 2 of 4, the survivor count (dose: 200.0 mg/kg/injection, schedule: Q01DX001 (ip), vehicle: saline) was 0 of 4 and the survivor count [3] was 0 of 4.

In the case of `O=C=Nc1cccc2c(N=C=O)cccc12`, the survivor count (dose: 50.0 mg/kg/injection, schedule: Q01DX009 (ip), vehicle: saline with Tween-80) is reported as 3 of 3 and the survivor count [6] is reported as 3 of 3.

With `Nc1cnccc1Nc1ccc(-c2ccccc2)cc1` the survivor count [6] was 1 of 6 and the survivor count (dose: 400.0 mg/kg/injection, schedule: Q01DX009 (ip), vehicle: saline with Tween-80) was 0 of 6.
